No constants are given. Whether binding was seen depends on the method and setting. In cells and extracts the contact can be indirect.
Target: HA-tagged HPV16 L2 (HPV16) (UniProt P03107)
Assay: co-IP; lysates of transfected 293TT cells (1% NP-40 Tris-NaCl, pH 8.0) on anti-HA magnetic beads, 1 h at 4°C, washed 5x; blot with anti-FLAG and anti-HA; cells with or without Kif11 inhibitor (1.5 µM) 1 or 2 h before harvest

Protein sequences, listed by entry. Tags and fused reporters are not part of them.
UniProt P03107: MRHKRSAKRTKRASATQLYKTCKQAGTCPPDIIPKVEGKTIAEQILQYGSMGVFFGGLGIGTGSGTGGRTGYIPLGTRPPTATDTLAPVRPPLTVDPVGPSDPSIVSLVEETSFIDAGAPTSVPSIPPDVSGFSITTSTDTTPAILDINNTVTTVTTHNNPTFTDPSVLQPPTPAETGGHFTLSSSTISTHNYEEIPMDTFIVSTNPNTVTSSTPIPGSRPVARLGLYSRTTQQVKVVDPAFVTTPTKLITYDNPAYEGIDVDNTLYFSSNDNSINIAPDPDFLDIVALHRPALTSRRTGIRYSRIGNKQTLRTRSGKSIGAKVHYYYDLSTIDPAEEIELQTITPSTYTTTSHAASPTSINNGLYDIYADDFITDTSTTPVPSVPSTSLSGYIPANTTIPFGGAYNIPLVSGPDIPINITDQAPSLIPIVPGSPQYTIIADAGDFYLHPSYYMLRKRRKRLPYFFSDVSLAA
UniProt P52732: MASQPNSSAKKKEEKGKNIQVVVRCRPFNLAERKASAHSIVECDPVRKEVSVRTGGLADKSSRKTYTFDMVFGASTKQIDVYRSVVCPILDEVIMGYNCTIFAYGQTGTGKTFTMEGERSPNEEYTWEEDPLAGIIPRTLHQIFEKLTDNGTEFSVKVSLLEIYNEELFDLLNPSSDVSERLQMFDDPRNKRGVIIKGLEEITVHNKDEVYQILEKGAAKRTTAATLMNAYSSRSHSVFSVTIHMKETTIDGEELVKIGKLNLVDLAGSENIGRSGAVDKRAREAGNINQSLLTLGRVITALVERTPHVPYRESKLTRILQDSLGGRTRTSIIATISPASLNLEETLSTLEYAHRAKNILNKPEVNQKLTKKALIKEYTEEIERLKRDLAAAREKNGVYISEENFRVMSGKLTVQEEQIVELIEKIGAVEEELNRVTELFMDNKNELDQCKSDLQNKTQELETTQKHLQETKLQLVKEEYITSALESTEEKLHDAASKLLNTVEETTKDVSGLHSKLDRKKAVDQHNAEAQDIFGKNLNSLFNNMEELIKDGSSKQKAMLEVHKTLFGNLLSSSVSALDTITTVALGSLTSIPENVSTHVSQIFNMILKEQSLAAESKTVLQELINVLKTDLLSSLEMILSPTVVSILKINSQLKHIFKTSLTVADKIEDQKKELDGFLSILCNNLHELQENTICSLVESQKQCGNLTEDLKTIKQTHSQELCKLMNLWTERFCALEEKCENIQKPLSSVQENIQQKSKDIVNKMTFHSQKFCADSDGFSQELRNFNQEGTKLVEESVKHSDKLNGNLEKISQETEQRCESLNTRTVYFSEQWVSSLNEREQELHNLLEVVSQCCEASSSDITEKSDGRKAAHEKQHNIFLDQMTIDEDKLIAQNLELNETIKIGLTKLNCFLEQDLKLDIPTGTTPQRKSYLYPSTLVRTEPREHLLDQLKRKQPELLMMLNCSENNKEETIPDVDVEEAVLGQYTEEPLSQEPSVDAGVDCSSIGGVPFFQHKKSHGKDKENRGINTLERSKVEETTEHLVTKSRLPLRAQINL

“FLAG-tagged Kif11 (from UniProt P52732 1-1056)” was tested, and the binding was “no binding”.

— paper PMC11784366
